# Data taken from PMC6877644.
# Protein sequences, listed by entry. Tags and fused reporters are not part of them.
# UniProt P50536: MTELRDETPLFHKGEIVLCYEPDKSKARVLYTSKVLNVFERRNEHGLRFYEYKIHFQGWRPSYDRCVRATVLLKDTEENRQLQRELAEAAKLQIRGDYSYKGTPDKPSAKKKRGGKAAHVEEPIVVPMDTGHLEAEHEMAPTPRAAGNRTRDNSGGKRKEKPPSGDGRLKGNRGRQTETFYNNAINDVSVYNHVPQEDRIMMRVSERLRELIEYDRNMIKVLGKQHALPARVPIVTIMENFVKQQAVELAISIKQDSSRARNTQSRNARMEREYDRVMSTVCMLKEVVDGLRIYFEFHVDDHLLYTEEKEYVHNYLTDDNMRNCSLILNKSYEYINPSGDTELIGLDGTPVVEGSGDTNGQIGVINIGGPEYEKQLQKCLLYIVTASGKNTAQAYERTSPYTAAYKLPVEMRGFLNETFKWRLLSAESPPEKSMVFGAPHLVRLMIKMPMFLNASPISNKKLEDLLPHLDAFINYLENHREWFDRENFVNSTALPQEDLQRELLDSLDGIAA
# Results are given in words; binding and its absence hold for the method and conditions named. In cells and extracts the contact can be indirect. Some results given as binding are weak or reduced against the parent protein; the word gives no strength. Sequences can lack the tags named with a protein.
# Molecular target: T1, FLAG-MSL1 (D. melanogaster) (UniProt P50535)
# T1 sequence: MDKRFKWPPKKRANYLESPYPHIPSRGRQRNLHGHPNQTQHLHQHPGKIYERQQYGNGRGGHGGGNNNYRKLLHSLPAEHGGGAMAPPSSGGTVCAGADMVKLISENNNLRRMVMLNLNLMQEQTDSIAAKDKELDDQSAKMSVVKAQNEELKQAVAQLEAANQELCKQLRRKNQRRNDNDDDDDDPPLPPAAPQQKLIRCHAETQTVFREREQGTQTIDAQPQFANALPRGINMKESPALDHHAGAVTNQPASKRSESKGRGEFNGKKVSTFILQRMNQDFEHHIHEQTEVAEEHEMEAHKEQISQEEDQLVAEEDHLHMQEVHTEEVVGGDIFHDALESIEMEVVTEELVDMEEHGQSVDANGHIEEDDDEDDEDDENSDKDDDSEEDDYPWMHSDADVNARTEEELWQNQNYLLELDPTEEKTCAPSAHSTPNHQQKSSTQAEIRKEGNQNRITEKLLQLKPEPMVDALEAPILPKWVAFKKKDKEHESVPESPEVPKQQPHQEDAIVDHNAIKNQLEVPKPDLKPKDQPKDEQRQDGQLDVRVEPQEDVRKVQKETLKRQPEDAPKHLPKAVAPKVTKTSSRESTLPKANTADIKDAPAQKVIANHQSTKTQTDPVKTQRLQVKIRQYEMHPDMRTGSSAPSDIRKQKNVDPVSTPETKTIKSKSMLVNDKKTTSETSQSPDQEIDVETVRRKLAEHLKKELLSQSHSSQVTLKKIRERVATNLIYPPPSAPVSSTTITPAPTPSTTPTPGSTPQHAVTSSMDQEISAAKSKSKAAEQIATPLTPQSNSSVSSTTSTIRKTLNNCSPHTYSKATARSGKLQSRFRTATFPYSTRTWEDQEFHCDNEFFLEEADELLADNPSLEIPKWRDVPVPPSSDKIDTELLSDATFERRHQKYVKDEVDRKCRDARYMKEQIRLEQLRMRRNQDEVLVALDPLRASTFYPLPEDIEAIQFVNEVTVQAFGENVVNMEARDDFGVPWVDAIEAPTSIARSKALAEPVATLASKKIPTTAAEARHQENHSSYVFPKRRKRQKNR
# Test: co-IP; Sf21 extracts with JJ-complex (FLAG-JIL-1/untagged JASPer) and with FLAG-MSL1/untagged MSL2 and FLAG-MSL3 mixed to similar concentrations; IP with antibodies specific for the bait (MSL1 or JIL-1)
substance,measurement,value
FLAG-MSL3 (from UniProt P50536 1-512),binding,binds
